This assay deals with human His-tagged 4-1BB recombinant protein (human) (UniProt Q07011). The experiment in a line: ELISA on coated human His-tagged 4-1BB; the bound 4-1BBL itself is detected (curve '4-1BBL'), serial dilution of 4-1BBL. On the technique in general: ELISA stands for enzyme-linked immunosorbent assay.

Chains of the proteins cited; added tags and fusions are not shown. Lines headed by an entry give the natural chain unless they say otherwise; changes in a name come on top. Residues count along the entry.
UniProt Q07011: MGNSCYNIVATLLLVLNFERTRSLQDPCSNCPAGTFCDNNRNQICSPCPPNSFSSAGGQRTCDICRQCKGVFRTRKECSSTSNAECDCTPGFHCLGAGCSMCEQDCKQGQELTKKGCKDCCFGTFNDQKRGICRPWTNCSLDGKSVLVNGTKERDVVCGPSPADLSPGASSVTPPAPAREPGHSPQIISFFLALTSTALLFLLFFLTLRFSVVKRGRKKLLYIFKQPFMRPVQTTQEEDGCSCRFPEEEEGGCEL
UniProt P41273, residues 71-254: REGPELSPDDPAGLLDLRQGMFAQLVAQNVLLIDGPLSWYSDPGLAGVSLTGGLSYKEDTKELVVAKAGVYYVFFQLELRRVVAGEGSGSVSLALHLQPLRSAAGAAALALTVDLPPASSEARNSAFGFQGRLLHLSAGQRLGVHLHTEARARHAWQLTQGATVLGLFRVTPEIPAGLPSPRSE

Results are given in words; binding and its absence hold for the method and conditions named. Some binding calls cover weakened binding; strength is not graded here.

Consider “4-1BBL-Fc (from UniProt P41273 71-254) (Fc fusion)”, for which the binding entry is listed as “binds”.

For the origin of these results see patent US20240262923A1.
